Data reported in PubChem BioAssay AID1259415 (National Center for Advancing Translational Sciences (NCATS), 2018).
In all, about 410,000 compounds went through this assay and about 18,000 (4.4%) were called active. This list was built around the results that the source calls inconclusive (neither active nor inactive); the mix of calls is not that of the screen. No stated cut-off is given here; in the data, active means activity change below about -60%; inconclusive means no clear call, values can overlap the other calls; inactive means above about -39%. The source holds several records for some structures; these can differ, active in one and inactive in another.
On the % scale 0 is the no-effect control and ±100 the full control effect.

Test: qHTS Assay for inhibitors of the human cytomegalovirus (HCMV)
Conditions: HFF cells, HCMV-luciferase reporter, 72 h; at 57.5 µM; stronger effect = lower value
Method in brief: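 Human foreskin fibroblasts infected with luciferase-reporter HCMV at MOI 1 PFU/cell, compounds at two doses. Luciferase measured 72 h post infection; normalized to buffer-only basal and Salinomycin (10uM) controls.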
In the case of `Cc1onc(C(N)=O)c1C(=O)Nc1ncc(C(F)(F)F)cc1Cl`, the activity change, negative = inhibition is reported as inconclusive: -50%. In the case of `O=C(NCc1cccc(Cl)c1)c1cccc(S(=O)(=O)N2CCCC2)c1`, the activity change, negative = inhibition is reported as inconclusive: -59.1%. For `OCC(O)C1OC(Nc2ccc(Cl)cc2)C(O)C1O` (stereo not drawn), the activity change, negative = inhibition was inactive: -18.2%. For `Cc1cccc(N2CCN(S(=O)(=O)c3ccc(-c4ccc(=O)[nH]n4)o3)CC2)c1C`, the activity change, negative = inhibition was active: -63.1%. For `Cc1cc(C)cc(Oc2ccc(-c3nnc(-c4ccccc4)o3)cc2[N+](=O)[O-])c1`, the activity change, negative = inhibition was inconclusive: -41.1%. With `O=c1c2ccccc2nc(-c2ccc(Cl)cc2Cl)n1CCCn1ccnc1` the activity change, negative = inhibition was inconclusive: -45.7%. In the case of `COCCN(CCOC)C(=O)c1ccc(NS(=O)(=O)c2ccc3[nH]c(=O)[nH]c3c2)cc1`, the activity change, negative = inhibition is reported as inactive: -6.2%. In the case of `C[C@H](CO)N1C[C@H](C)[C@H](CN(C)CC2CCCCC2)Oc2ccc(NS(=O)(=O)c3ccc(F)cc3)cc2CC1=O`, the activity change, negative = inhibition is reported as inconclusive: -54.7%. With `Cc1ccc(S(=O)(=O)C(CNS(=O)(=O)c2cc(F)ccc2F)c2cccs2)cc1` (stereo not drawn) the activity change, negative = inhibition was inconclusive: -50.5%. In the case of `COc1cc(CNC(=O)c2cnc(SC)nc2-c2ccccc2)cc(OC)c1OC`, the activity change, negative = inhibition is reported as inactive: 0.117%. In the case of `CC(C)(C)OC(=O)N1CCC(c2c(C(=O)NC3CCCCC3)cnn2-c2ccc(F)cc2F)CC1`, the activity change, negative = inhibition is reported as inactive: 0%. In the case of `CCN(CC)P(=O)(Nc1ccccc1Br)c1ccc(N(C)C)cc1NC(=O)c1ccco1` (stereo not drawn), the activity change, negative = inhibition is reported as active: -60.5%. In the case of `CC(=O)c1ccc(N(C)C)cc1`, the activity change, negative = inhibition is reported as inactive: 56.1%. With `CC(=O)Nc1cc(NC(C)=O)cc(C(=O)N2CCCC3CCCCC32)c1` (stereo not drawn) the activity change, negative = inhibition was inactive: 56.3%. In the case of `Cc1cccc(N(Cc2ccccc2)C(=O)CN2C(=O)NC3(CCCC3)C2=O)c1`, the activity change, negative = inhibition is reported as inconclusive: -41.2%. In the case of `COc1cc(NC(=O)C2=C(N3CCOCC3)/C(=C\c3ccc(N(C)C)cc3)CCC2)cc(OC)c1OC`, the activity change, negative = inhibition is reported as active: -90.6%. In the case of `CC1=C/C(=N\S(=O)(=O)c2ccccc2)C(C(C)C)=CC1=O`, the activity change, negative = inhibition is reported as inconclusive: -48%. In the case of `COc1cccc(OC)c1C(=O)Oc1ccc2c(c1)O/C(=C\c1ccncc1)C2=O`, the activity change, negative = inhibition is reported as active: -75.1%. In the case of `CCN(Cc1nc(-c2ccc(OC)c(OC)c2)no1)S(=O)(=O)c1ccc(OC)cc1`, the activity change, negative = inhibition is reported as inactive: 1.23%. For `Cc1cccc(S(=O)(=O)c2cn(Cc3ccccc3)c3cc(N4CCCCC4)c(F)cc3c2=O)c1`, the activity change, negative = inhibition was inactive: -21.8%. For `CC(=O)NC(Cc1ccccc1)Cc1ccccc1`, the activity change, negative = inhibition was inactive: -28.7%. In the case of `CCN1CCN(C(=O)CN(c2cccc(Br)c2)S(=O)(=O)c2ccccc2)CC1`, the activity change, negative = inhibition is reported as inconclusive: -44.2%. For `O=C(Nc1ccc(NC(=S)NC(=O)C(c2ccccc2)c2ccccc2)cc1)c1ccccc1`, the activity change, negative = inhibition was active: -65.7%. For `COC(=O)c1ccccc1NS(=O)(=O)c1cc2c(cc1C)N(C)CCO2`, the activity change, negative = inhibition was inconclusive: -43%. In the case of `O=C(Nc1ccc(Cl)c(Cl)c1)Nc1nccs1`, the activity change, negative = inhibition is reported as active: -66.3%. In the case of `CN(CC(=O)Nc1sccc1C(N)=O)S(=O)(=O)c1ccc(Cl)cc1`, the activity change, negative = inhibition is reported as inconclusive: -57.6%. For `S=C(NCc1ccco1)N1CCN(c2ccc(Cl)cc2)CC1`, the activity change, negative = inhibition was inconclusive: -57.1%. In the case of `CN(C)c1ccc(Nc2ncnc3c2c(-c2ccccc2)cn3-c2cccc(Cl)c2)cc1`, the activity change, negative = inhibition is reported as inconclusive: -56.6%. For `CCn1cc(/C=C(\NC(=O)c2cc(OC)c(OC)c(OC)c2)C(=O)NCCCn2ccnc2)c2ccccc21`, the activity change, negative = inhibition was active: -104%. With `Cc1ccc(Cl)cc1NC(=O)c1cc2ccccc2cc1O` the activity change, negative = inhibition was active: -99.6%. With `C=C[C@@H]1c2cccc(C)c2N(S(=O)(=O)c2ccc(C)cc2)[C@H](c2ccc(OC(C)=O)cc2)C1(C#N)C#N` the activity change, negative = inhibition was active: -79.1%. With `COc1ccc(CCN2CN(S(=O)(=O)c3ccccc3)c3nc4ccccc4nc32)cc1OC` the activity change, negative = inhibition was active: -65.6%. With `O=C(Cn1ncc2c1-c1ccccc1OC2)N1CCN(Cc2ccccc2)CC1` the activity change, negative = inhibition was inactive: 0%. With `CCn1c(=O)cc(OCC(=O)NCCCN2CCCC2=O)c2ccccc21` the activity change, negative = inhibition was inactive: 163%. In the case of `C#CCN(C[C@@H]1[C@@H](OC(=O)Nc2cccs2)[C@@H](OC(=O)Nc2cccs2)Cn2c(=O)ccc(=O)n21)S(=O)(=O)c1ccc(C)cc1`, the activity change, negative = inhibition is reported as active: -103%. In the case of `CC(NC(=O)CSc1nc2c(c(C(F)(F)F)n1)CCc1ccccc1-2)c1ccccc1` (stereo not drawn), the activity change, negative = inhibition is reported as inconclusive: -44%. With `Cn1nnc2cc(C(=O)NCc3ccco3)ccc21` the activity change, negative = inhibition was inactive: -4.75%. With `N#Cc1c(-c2ccccc2)cc(-c2ccccc2)nc1SCC(O)CS(=O)(=O)Cc1ccc(Cl)cc1` (stereo not drawn) the activity change, negative = inhibition was inactive: -15.1%. For `CCOC(=O)[C@]12CCCC=C1N(Cc1cccc3ccccc13)C(=O)[C@H](CC(=O)NCCCN1CCCC1=O)C2`, the activity change, negative = inhibition was inactive: -7.72%. In the case of `CC1(C)NC(=O)N(CCCC(=O)Nc2ccc(C(F)(F)F)cc2)C1=O`, the activity change, negative = inhibition is reported as inconclusive: -50.1%. In the case of `COc1ccccc1C(=O)NC(=S)Nc1ccc(N2CCOCC2)c(Cl)c1`, the activity change, negative = inhibition is reported as inconclusive: -43.2%. For `CN(c1ccc(C(=O)Nc2ccc(Cl)cn2)cc1)S(=O)(=O)c1ccccc1`, the activity change, negative = inhibition was active: -66.1%. With `O=C(CN(C(=O)CCC(=O)Nc1nccs1)c1cccc(F)c1)NCCc1ccccc1` the activity change, negative = inhibition was active: -88.3%. In the case of `CCOC(=O)C1(Cc2ccccc2)CCN(Cc2cn(CC(=O)OC)c3ccccc23)CC1`, the activity change, negative = inhibition is reported as inconclusive: -41.4%. With `O=C(Cn1c2ccc(F)cc2c2nc3n(c(=O)c21)CCS3)Nc1ccc(Cl)cc1F` the activity change, negative = inhibition was inconclusive: -50%. With `CCOc1c(Br)cc(CNc2ccc3c(c2)OCCO3)cc1OC` the activity change, negative = inhibition was active: -81.6%. With `COc1ccc(OCC(=O)NCCC2=CCCCC2)c([N+](=O)[O-])c1` the activity change, negative = inhibition was inconclusive: -46.4%. For `CC1CC1c1ccc(/C=C(\C#N)C(=O)Nc2cc(Cl)ccc2Cl)o1` (stereo not drawn), the activity change, negative = inhibition was inactive: 14.8%. With `O=C(Nc1ccccc1)Nc1cccc(C(F)(F)F)c1` the activity change, negative = inhibition was inactive: -34%. For `Cc1cccc(N2O[C@H]3C=C[C@@H]2C3)n1`, the activity change, negative = inhibition was inactive: 37.7%. With `CCCOc1ccc(-c2csc(N)n2)cc1[N+](=O)[O-]` the activity change, negative = inhibition was inactive: -32.2%. With `Cc1cccc(N(C(=O)c2nsc(Cl)c2Cl)C(C(=O)NC2CCCC2)c2ccc(O)cc2)c1C` (stereo not drawn) the activity change, negative = inhibition was inconclusive: -46.8%. In the case of `O=C(/C=C/c1ccc2c(c1)OCCO2)N1CCN(c2ccc(F)cc2)CC1`, the activity change, negative = inhibition is reported as inconclusive: -40.2%. With `COCCn1c(=NC(=O)c2cc(Cl)sc2Cl)sc2cc(S(N)(=O)=O)ccc21` the activity change, negative = inhibition was inconclusive: -40.1%. With `Oc1c(C(Nc2ccccn2)c2ccccc2F)ccc2cccnc12` (stereo not drawn) the activity change, negative = inhibition was active: -95.4%. With `COc1ccc(C)cc1NC(=O)c1ccc(CN2CCN(c3ccccc3)CC2)cc1` the activity change, negative = inhibition was inconclusive: -56%. In the case of `Cc1ccc(-c2noc(CCCC(=O)NC3CCCCC3)n2)cc1`, the activity change, negative = inhibition is reported as active: -77%. In the case of `COc1ccc(CC(=O)Nc2sccc2C#N)cc1S(=O)(=O)N1CCOCC1`, the activity change, negative = inhibition is reported as inactive: 13.8%. For `CC(C)(c1ccccc1)c1ccc(OCC(O)CNC2CCN(Cc3ccccc3)CC2)cc1` (stereo not drawn), the activity change, negative = inhibition was active: -113%. With `O=C(c1ccccc1)N1c2nc(-c3ccco3)nn2C2(CCCCC2)[C@@H]2CCCC[C@@H]21` the activity change, negative = inhibition was inactive: 24.3%. For `O=C(Nc1ccc2nc(N3CCOCC3)sc2c1)c1cc2ccccc2o1`, the activity change, negative = inhibition was inactive: 43.6%. In the case of `CCCNC(=O)C1(C)CCCN(Cc2cc(-c3ccccc3)nn2C)C1` (stereo not drawn), the activity change, negative = inhibition is reported as inactive: 23%. With `COc1ccc(/C=C(\C#N)C(=O)OCC(=O)Nc2c(C)cccc2C(C)C)cc1` the activity change, negative = inhibition was inconclusive: -46.5%. For `OCCC1CN(Cc2cnc(-c3ccc(Cl)cc3)nc2)CCN1C1CCCC1` (stereo not drawn), the activity change, negative = inhibition was inconclusive: -54.3%. For `CCn1c(NC(=O)c2ccc(COc3ccc(C)cc3[N+](=O)[O-])o2)nc2ccccc21`, the activity change, negative = inhibition was active: -62.7%. With `Cc1ccc(S(=O)(=O)N(C)C)cc1NC(=O)COC(=O)c1ccc2c(c1)OCO2` the activity change, negative = inhibition was inconclusive: -53.7%. For `O=C(NCCCN1CCCC1=O)c1cccnc1`, the activity change, negative = inhibition was inactive: 12.8%. With `O=c1c2ccccc2nc(/C=C/c2ccccc2O)n1-c1ccc(Br)cc1` the activity change, negative = inhibition was active: -63.4%. For `O=C(Nc1ccccc1)c1nc[nH]c1C(=O)Nc1ccccc1F`, the activity change, negative = inhibition was inconclusive: -49%. For `O=C(Nc1ccc(Cl)cc1)N1CCCN(Cc2ccccc2F)C1`, the activity change, negative = inhibition was inactive: -9.39%. In the case of `NC(=O)c1nsc(C(=O)N(c2ccccc2)C(C(=O)NCc2ccc(F)cc2)c2ccco2)c1N` (stereo not drawn), the activity change, negative = inhibition is reported as inconclusive: -46.4%. With `Cc1ccc2nc(-c3ccccc3)c(CN3CCSCC3)n2c1` the activity change, negative = inhibition was inconclusive: -40.8%. In the case of `C#CCSc1cc(C(F)(F)F)nc(-c2ccccn2)n1`, the activity change, negative = inhibition is reported as inconclusive: -46.9%. For `CC(C)CCn1c(=O)c(C(=O)Nc2ccccc2S(N)(=O)=O)c(O)c2ccccc21`, the activity change, negative = inhibition was active: -97.4%. For `CCCOc1ccc(CNC(=O)C(NS(=O)(=O)c2cccs2)C(C)C)cc1` (stereo not drawn), the activity change, negative = inhibition was inactive: -3.1%. In the case of `Cn1nc(CC(=O)Nc2ccc(N3CCN(C(=O)OC(C)(C)C)CC3)cc2)c2ccccc2c1=O`, the activity change, negative = inhibition is reported as active: -79%. For `CCOc1ccc(CCN2C(=S)N([C@@H](CC(C)C)CN3CCCC3CN3C(=S)NC[C@@H]3Cc3ccc(O)cc3)C[C@@H]2Cc2ccc(O)cc2)cc1` (stereo partly drawn), the activity change, negative = inhibition was active: -83.9%. With `COc1cc(Cl)ccc1OCc1cc(C(=O)N(C)Cc2cccc3cnccc23)no1` the activity change, negative = inhibition was inconclusive: -54.8%. In the case of `COc1ccccc1N1CCN(C(=O)C2CCCN(S(=O)(=O)c3ccc4c(c3)CCCN4C(C)=O)C2)CC1` (stereo not drawn), the activity change, negative = inhibition is reported as active: -88.6%. In the case of `O=S(=O)(NC1CC1)c1ccc(S(=O)(=O)N2CCCC3(CCCCC3)C2)cc1`, the activity change, negative = inhibition is reported as inconclusive: -40.4%. For `N#CC1(NC(=O)CSc2nnc(Nc3ccccc3F)s2)CCCC1`, the activity change, negative = inhibition was inactive: 48.1%. In the case of `Cc1cc(N2CCN(C(=O)/C=C/C(=O)O)CC2)c2ccccc2n1`, the activity change, negative = inhibition is reported as inconclusive: -56.5%. With `CC1CCN(C(c2nnnn2CCc2ccccc2)C(C)C)CC1` (stereo not drawn) the activity change, negative = inhibition was inconclusive: -40.8%.
